# ± gives the standard deviation of the averaged measurements. Some of the results follow.
# Sequences of proteins named here, by UniProt entry; tags and fusion partners are left off. A change or cut given only in a name is not applied to a line headed by its entry.
# UniProt Q9NQP4, whole entry: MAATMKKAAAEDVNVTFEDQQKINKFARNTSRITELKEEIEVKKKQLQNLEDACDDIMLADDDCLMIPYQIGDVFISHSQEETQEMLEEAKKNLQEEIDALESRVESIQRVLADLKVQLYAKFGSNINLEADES
# UniProt Q9H8K7: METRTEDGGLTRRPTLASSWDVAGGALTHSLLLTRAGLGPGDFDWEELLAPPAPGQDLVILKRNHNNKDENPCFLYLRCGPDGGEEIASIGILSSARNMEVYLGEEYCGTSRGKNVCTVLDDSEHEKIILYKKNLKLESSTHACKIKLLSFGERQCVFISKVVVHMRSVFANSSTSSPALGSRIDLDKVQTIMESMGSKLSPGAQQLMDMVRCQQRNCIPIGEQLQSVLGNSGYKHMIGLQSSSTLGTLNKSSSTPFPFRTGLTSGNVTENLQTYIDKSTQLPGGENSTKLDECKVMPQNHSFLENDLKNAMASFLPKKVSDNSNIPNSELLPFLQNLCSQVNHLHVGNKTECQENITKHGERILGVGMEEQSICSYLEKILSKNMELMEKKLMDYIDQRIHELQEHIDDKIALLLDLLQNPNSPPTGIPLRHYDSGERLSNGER
# UniProt Q9H4Z3: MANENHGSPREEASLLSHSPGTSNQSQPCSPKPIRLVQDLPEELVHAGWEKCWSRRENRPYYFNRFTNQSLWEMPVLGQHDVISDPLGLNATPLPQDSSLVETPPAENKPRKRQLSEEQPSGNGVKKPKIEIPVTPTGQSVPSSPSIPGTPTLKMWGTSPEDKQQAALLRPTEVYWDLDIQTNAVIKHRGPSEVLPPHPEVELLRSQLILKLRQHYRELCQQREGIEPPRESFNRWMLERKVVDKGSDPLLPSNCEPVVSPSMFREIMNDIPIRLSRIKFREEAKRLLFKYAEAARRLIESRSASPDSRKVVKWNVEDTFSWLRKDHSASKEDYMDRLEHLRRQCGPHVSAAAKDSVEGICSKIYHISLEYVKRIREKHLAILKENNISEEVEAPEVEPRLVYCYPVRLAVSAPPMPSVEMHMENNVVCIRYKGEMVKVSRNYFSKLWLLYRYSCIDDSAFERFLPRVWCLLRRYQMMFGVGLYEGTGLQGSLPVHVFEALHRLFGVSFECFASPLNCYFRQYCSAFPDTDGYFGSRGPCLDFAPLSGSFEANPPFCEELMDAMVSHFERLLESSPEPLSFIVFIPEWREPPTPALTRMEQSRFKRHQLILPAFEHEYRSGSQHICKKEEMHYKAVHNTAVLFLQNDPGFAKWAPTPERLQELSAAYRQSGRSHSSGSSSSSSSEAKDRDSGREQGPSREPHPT
# UniProt Q9C073: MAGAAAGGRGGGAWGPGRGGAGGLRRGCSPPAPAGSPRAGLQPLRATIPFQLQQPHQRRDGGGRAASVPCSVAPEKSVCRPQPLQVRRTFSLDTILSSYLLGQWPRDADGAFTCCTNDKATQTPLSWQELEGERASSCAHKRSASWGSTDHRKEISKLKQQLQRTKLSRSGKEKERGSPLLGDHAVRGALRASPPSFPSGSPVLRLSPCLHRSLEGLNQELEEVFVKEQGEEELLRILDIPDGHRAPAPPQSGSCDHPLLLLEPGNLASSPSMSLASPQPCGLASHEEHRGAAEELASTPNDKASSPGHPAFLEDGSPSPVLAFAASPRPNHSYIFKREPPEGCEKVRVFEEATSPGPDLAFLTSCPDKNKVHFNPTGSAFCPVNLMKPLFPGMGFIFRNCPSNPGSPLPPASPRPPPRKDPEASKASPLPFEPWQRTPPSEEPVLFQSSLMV
# UniProt Q9BZX2: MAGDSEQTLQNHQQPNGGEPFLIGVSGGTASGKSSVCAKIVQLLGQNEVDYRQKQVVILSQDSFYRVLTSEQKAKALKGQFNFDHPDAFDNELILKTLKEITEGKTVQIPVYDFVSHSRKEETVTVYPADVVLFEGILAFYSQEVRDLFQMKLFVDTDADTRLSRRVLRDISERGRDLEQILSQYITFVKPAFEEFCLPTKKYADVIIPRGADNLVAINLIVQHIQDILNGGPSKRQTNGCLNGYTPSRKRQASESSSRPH
# Compound: Nc1nc2c(ncn2[C@@H]2O[C@H](COP(=O)(O)OP(=O)(O)OP(=O)(O)O)[C@@H](O)[C@H]2O)c(=O)[nH]1 [guanosine triphosphate]
# Assay: NP40-soluble protein abundance relative to vehicle (solubility fold change) (ratio); higher = more soluble protein in presence of GTP
# Description: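 Solubility proteome profiling in Jurkat crude lysate. Lysate was treated with Mg-GTP (0.1-10 mM) for 10 min at room temperature and 3 min at 37 °C, then solubilised with 0.8% NP40 and benzonase, followed by ultracentrifugation. Proteins were quantified by TMT10 LC-MS/MS; the value is the NP40-soluble abundance relative to the NP40-processed vehicle, from 3 independent experiments.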
target,measurement,setting,value
PFDN4 (UniProt Q9NQP4),NP40-soluble protein abundance,concentration: 0.1mM,0.931 ± 0.062
same,NP40-soluble protein abundance,concentration: 0.5mM,0.953 ± 0.13
same,NP40-soluble protein abundance,concentration: 1mM,1.01 ± 0.12
same,NP40-soluble protein abundance,concentration: 2mM,0.944 ± 0.12
same,NP40-soluble protein abundance,concentration: 4mM,0.939 ± 0.18
same,NP40-soluble protein abundance,concentration: 6mM,0.941 ± 0.16
same,NP40-soluble protein abundance,concentration: 8mM,0.958 ± 0.12
same,NP40-soluble protein abundance,concentration: 10mM,0.977 ± 0.15
UniProt Q9H8K7,NP40-soluble protein abundance,concentration: 0.1mM,1.09 ± 0.16
same,NP40-soluble protein abundance,concentration: 0.5mM,1.03 ± 0.14
same,NP40-soluble protein abundance,concentration: 1mM,0.976 ± 0.029
same,NP40-soluble protein abundance,concentration: 2mM,0.956 ± 0.1
same,NP40-soluble protein abundance,concentration: 4mM,1.08 ± 0.11
same,NP40-soluble protein abundance,concentration: 6mM,0.961 ± 0.13
same,NP40-soluble protein abundance,concentration: 8mM,1.08 ± 0.049
same,NP40-soluble protein abundance,concentration: 10mM,1.01 ± 0.038
PCIF1 (UniProt Q9H4Z3),NP40-soluble protein abundance,concentration: 0.1mM,0.97 ± 0.035
same,NP40-soluble protein abundance,concentration: 0.5mM,0.998 ± 0.018
same,NP40-soluble protein abundance,concentration: 1mM,0.952 ± 0.063
same,NP40-soluble protein abundance,concentration: 2mM,0.92 ± 0.067
same,NP40-soluble protein abundance,concentration: 4mM,0.918 ± 0.065
same,NP40-soluble protein abundance,concentration: 6mM,0.948 ± 0.072
same,NP40-soluble protein abundance,concentration: 8mM,0.902 ± 0.097
same,NP40-soluble protein abundance,concentration: 10mM,0.882 ± 0.068
FAM117A (UniProt Q9C073),NP40-soluble protein abundance,concentration: 0.1mM,1.31 ± 0.14
same,NP40-soluble protein abundance,concentration: 0.5mM,0.983 ± 0.018
same,NP40-soluble protein abundance,concentration: 1mM,1.28 ± 0.084
same,NP40-soluble protein abundance,concentration: 2mM,1.03 ± 0.024
same,NP40-soluble protein abundance,concentration: 4mM,1.1204 ± 7.8e-05
same,NP40-soluble protein abundance,concentration: 6mM,1.02 ± 0.037
same,NP40-soluble protein abundance,concentration: 8mM,1.1 ± 0.056
same,NP40-soluble protein abundance,concentration: 10mM,1.12 ± 0.086
UCK2 (UniProt Q9BZX2),NP40-soluble protein abundance,concentration: 0.1mM,0.947 ± 0.053
same,NP40-soluble protein abundance,concentration: 0.5mM,0.929 ± 0.038
same,NP40-soluble protein abundance,concentration: 1mM,0.947 ± 0.044
same,NP40-soluble protein abundance,concentration: 2mM,0.905 ± 0.057
same,NP40-soluble protein abundance,concentration: 4mM,0.891 ± 0.05
same,NP40-soluble protein abundance,concentration: 6mM,0.92 ± 0.03
same,NP40-soluble protein abundance,concentration: 8mM,0.888 ± 0.03
same,NP40-soluble protein abundance,concentration: 10mM,0.885 ± 0.063

# Looked up one by one from the list above (3):
target,measurement,setting,value
FAM117A (UniProt Q9C073),NP40-soluble protein abundance,concentration: 8mM,1.1 ± 0.056
UniProt Q9H8K7,NP40-soluble protein abundance,concentration: 0.1mM,1.09 ± 0.16
PCIF1 (UniProt Q9H4Z3),NP40-soluble protein abundance,concentration: 1mM,0.952 ± 0.063
